Data reported in article PMC4627809.
Results are given in words; binding and its absence hold for the method and conditions named. For part of these data: Binding seen in cells or lysates may run through a third protein. Some results given as binding are weak or reduced against the parent protein; the word gives no strength. For part of these data: Tags and fused reporters may be left off the sequences shown. Each block holds one binder with its values, some of them ahead of it.

Tests used:
[1] = molecular target: FLAG-HSP90β wild type (human), P08238; experiment: LUMIER; HEK293 in 96-well plates co-transfected with NanoLuc-client and 3XFLAG-HSP90α or β; TGNET lysate on anti-FLAG antibody-coated plate 2 h at 4°C; NanoLuc read-out divided by anti-FLAG-HRP read-out = relative interaction strength; conditions: remark: other sources report otherwise
FLAG-HSP90α D93A (human) = FLAG-HSP90α D93A (human) (UniProt P07900); experiment: co-IP; HEK293 co-transfected with FLAG-HSP90 construct and client for 18 h; lysis in TGNET (50 mM Tris HCl pH 7.5, 5% glycerol, 100 mM NaCl, 2 mM EDTA, 0.5% Triton X-100); 700 μg lysate on anti-FLAG beads 2 h at 4°C; western blot for the client
[2] = molecular target: FLAG-HSP90β R392A (human) (UniProt P08238); experiment: as above
[3] = molecular target: FLAG-HSP90α wild type (human) (UniProt P07900); experiment: as above
[4] = molecular target: FLAG-HSP90β IL213/5AA (human) (UniProt P08238); experiment: as above
[5] = molecular target: FLAG-HSP90α R400A (human) (UniProt P07900); experiment: as above
[6] = molecular target: FLAG-HSP90α IL218/20AA (human) (UniProt P07900); experiment: as above
[7] = molecular target: FLAG-HSP90β wild type (human) (UniProt P08238); experiment: as above
FLAG-HSP90α E47A (human) = FLAG-HSP90α E47A (human) (UniProt P07900); experiment: as above
FLAG-HSP90β E42A (human) = FLAG-HSP90β E42A (human) (UniProt P08238); experiment: as above
FLAG-HSP90β D88A (human) = FLAG-HSP90β D88A (human) (UniProt P08238); experiment: as above
[8] = molecular target: FLAG-HSP90β wild type (human) (UniProt P08238); experiment: LUMIER; HEK293 in 96-well plates co-transfected with NanoLuc-client and 3XFLAG-HSP90α or β; TGNET lysate on anti-FLAG antibody-coated plate 2 h at 4°C; NanoLuc read-out divided by anti-FLAG-HRP read-out = relative interaction strength

- binding [1]: binds
B1: NL-HSF1, Q00613 1-529 (protein)
chain: MDLPVGPGAAGPSNVPAFLTKLWTLVSDPDTDALICWSPSGNSFHVFDQGQFAKEVLPKYFKHNNMASFVRQLNMYGFRKVVHIEQGGLVKPERDDTEFQHPCFLRGQEQLLENIKRKVTSVSTLKSEDIKIRQDSVTKLLTDVQLMKGKQECMDSKLLAMKHENEALWREVASLRQKHAQQQKVVNKLIQFLISLVQSNRILGVKRKIPLMLNDSGSAHSMPKYSRQFSLEHVHGSGPYSAPSPAYSSSSLYAPDAVASSGPIISDITELAPASPMASPGGSIDERPLSSSPLVRVKEEPPSPPQSPRVEEASPGRPSSVDTLLSPTALIDSILRESEPAPASVTALTDARGHTDTEGRPPSPPPTSTPEKCLSVACLDKNELSDHLDAMDSNLDNLQTMLSSHGFSVDTSALLDLFSPSVTVPDMSLPDLDSSLASIQELLSPQEPPRPPEAENSSPDSGKQLVHYTAQPLFLLDPGSVDTGSNDLPVLFELGEGSYFSEGDGFAEDPTISLLTGSEPPKAKDPTVS

- binding (FLAG-HSP90α D93A (human)): binds
- binding [2]: binds
- binding [3]: binds
- binding [4]: binds
- binding [5]: binds
- binding [6]: binds
- binding [7]: binds
- binding (FLAG-HSP90α E47A (human)): binds
- binding (FLAG-HSP90β E42A (human)): binds
- binding (FLAG-HSP90β D88A (human)): binds
B2: HA-RHOBTB2 (protein, UniProt Q9BYZ6 1-727)
chain: MDSDMDYERPNVETIKCVVVGDNAVGKTRLICARACNATLTQYQLLATHVPTVWAIDQYRVCQEVLERSRDVVDDVSVSLRLWDTFGDHHKDRRFAYGRSDVVVLCFSIANPNSLHHVKTMWYPEIKHFCPRAPVILVGCQLDLRYADLEAVNRARRPLARPIKPNEILPPEKGREVAKELGIPYYETSVVAQFGIKDVFDNAIRAALISRRHLQFWKSHLRNVQRPLLQAPFLPPKPPPPIIVVPDPPSSSEECPAHLLEDPLCADVILVLQERVRIFAHKIYLSTSSSKFYDLFLMDLSEGELGGPSEPGGTHPEDHQGHSDQHHHHHHHHHGRDFLLRAASFDVCESVDEAGGSGPAGLRASTSDGILRGNGTGYLPGRGRVLSSWSRAFVSIQEEMAEDPLTYKSRLMVVVKMDSSIQPGPFRAVLKYLYTGELDENERDLMHIAHIAELLEVFDLRMMVANILNNEAFMNQEITKAFHVRRTNRVKECLAKGTFSDVTFILDDGTISAHKPLLISSCDWMAAMFGGPFVESSTREVVFPYTSKSCMRAVLEYLYTGMFTSSPDLDDMKLIILANRLCLPHLVALTEQYTVTGLMEATQMMVDIDGDVLVFLELAQFHCAYQLADWCLHHICTNYNNVCRKFPRDMKAMSPENQEYFEKHRWPPVWYLKEEDHYQRARKEREKEDYLHLKRQPKRRWLFWNSPSSPSSSAASSSSPSSSSAVV

- binding [8]: binds
B3: NL-RHOBTB2/DBC2 (protein, UniProt Q9BYZ6 1-727)
chain: B2 chain
